Experimental data: PMC5234816
Results are given in words; binding and its absence hold for the method and conditions named. In cells and extracts the contact can be indirect. Some binding calls cover weakened binding; strength is not graded here. Where a sequence is shown, tags or fusion partners need not be part of it.

Assays:
Assay in all cases: co-IP; HEK-293 cells transfected with SLITRK5 alleles; interaction with purified PTPδ-Fc examined by co-precipitation and immunoblot; only the binder purified
[1] = target: T1, HA-tagged SLITRK5 G722Δ (rare amino acid deletion from an OCD subject) (human) (UniProt O94991)
T1 sequence: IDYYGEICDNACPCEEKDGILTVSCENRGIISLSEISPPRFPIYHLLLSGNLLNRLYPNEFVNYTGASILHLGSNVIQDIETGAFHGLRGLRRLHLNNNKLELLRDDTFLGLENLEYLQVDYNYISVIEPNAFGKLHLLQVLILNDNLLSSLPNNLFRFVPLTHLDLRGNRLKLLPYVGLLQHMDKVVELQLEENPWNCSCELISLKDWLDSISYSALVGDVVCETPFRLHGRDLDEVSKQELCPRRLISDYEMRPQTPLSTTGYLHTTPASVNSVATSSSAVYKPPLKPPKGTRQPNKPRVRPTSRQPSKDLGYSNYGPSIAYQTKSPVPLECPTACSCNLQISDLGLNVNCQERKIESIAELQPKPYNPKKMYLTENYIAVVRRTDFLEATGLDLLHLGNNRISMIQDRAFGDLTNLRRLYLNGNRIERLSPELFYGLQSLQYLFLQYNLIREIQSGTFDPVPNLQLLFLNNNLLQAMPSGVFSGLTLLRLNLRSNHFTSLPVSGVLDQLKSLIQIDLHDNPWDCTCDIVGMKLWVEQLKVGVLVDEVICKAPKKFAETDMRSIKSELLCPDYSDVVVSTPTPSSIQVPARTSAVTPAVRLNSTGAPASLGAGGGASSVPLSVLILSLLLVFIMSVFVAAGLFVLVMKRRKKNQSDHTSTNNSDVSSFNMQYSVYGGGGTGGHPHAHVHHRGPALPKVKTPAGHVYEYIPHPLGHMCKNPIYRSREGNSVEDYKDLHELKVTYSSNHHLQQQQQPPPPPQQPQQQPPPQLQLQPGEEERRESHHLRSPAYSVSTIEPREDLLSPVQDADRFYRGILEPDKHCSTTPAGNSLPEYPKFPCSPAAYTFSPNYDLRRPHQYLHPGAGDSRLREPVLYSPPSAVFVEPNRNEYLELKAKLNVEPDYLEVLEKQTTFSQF

[2] = target: T2, HA-tagged wild type SLITRK5 (SLIT and NTRK-Like Family, Member 5), ancestral human allele (human) (UniProt O94991)
T2 sequence: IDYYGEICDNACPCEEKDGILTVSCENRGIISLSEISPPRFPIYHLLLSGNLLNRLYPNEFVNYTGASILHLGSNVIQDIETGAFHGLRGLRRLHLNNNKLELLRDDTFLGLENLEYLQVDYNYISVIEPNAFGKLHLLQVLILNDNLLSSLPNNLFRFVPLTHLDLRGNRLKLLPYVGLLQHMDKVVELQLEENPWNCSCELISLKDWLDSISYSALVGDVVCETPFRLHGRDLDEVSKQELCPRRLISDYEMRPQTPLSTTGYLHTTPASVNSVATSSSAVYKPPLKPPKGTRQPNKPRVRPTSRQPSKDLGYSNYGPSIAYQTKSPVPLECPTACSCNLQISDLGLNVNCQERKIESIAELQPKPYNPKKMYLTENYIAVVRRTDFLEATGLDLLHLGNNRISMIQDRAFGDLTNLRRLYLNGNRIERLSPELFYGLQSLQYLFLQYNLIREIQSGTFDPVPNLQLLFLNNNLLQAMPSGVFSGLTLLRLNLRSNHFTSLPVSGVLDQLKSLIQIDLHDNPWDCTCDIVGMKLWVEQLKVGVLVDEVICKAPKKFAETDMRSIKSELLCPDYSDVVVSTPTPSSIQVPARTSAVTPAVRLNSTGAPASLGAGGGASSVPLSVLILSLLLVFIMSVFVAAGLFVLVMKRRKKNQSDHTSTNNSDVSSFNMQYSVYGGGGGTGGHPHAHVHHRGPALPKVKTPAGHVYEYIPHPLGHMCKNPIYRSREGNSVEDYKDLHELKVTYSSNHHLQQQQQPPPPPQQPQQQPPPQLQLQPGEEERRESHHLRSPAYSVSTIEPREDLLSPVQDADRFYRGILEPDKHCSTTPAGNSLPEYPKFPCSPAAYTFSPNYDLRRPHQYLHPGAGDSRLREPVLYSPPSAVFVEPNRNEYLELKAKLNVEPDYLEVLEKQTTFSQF

[3] = target: T3, HA-tagged SLITRK5 N99K (rare non-synonymous mutation from an OCD subject) (human) (UniProt O94991)
T3 sequence: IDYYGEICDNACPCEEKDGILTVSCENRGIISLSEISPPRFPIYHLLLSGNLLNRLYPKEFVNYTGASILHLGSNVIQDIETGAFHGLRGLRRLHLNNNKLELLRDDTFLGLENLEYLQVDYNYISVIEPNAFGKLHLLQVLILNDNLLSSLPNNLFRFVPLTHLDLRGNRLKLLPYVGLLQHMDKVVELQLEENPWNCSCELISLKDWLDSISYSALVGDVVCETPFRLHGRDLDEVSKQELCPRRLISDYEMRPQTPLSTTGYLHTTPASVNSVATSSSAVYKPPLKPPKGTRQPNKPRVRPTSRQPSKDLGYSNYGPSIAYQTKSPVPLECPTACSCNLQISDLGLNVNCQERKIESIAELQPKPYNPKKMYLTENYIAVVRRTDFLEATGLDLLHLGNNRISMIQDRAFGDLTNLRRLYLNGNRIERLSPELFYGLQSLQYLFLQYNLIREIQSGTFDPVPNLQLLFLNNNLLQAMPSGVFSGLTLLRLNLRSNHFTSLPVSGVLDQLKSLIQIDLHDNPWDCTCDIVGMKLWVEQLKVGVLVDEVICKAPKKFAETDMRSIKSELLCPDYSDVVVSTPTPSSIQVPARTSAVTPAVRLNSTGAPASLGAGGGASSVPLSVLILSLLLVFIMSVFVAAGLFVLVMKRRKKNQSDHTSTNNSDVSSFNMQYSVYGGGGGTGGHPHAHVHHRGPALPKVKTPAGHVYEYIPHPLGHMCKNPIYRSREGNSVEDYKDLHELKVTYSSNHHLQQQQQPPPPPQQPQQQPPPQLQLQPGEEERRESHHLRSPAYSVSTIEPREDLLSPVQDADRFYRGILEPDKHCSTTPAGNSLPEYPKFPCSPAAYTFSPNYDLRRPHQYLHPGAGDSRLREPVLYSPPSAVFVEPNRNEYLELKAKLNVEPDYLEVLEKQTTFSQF

Measured: binding

B1: soluble PTPδ ectodomain fused to a human immunoglobulin Fc fragment (PTPδ-Fc) (Fc fusion, UniProt P23468 21-1265)
chain: ETPPRFTRTPVDQTGVSGGVASFICQATGDPRPKIVWNKKGKKVSNQRFEVIEFDDGSGSVLRIQPLRTPRDEAIYECVASNNVGEISVSTRLTVLREDQIPRGFPTIDMGPQLKVVERTRTATMLCAASGNPDPEITWFKDFLPVDTSNNNGRIKQLRSESIGGTPIRGALQIEQSEESDQGKYECVATNSAGTRYSAPANLYVRELREVRRVPPRFSIPPTNHEIMPGGSVNITCVAVGSPMPYVKWMLGAEDLTPEDDMPIGRNVLELNDVRQSANYTCVAMSTLGVIEAIAQITVKALPKPPGTPVVTESTATSITLTWDSGNPEPVSYYIIQHKPKNSEELYKEIDGVATTRYSVAGLSPYSDYEFRVVAVNNIGRGPPSEPVLTQTSEQAPSSAPRDVQARMLSSTTILVQWKEPEEPNGQIQGYRVYYTMDPTQHVNNWMKHNVADSQITTIGNLVPQKTYSVKVLAFTSIGDGPLSSDIQVITQTGVPGQPLNFKAEPESETSILLSWTPPRSDTIANYELVYKDGEHGEEQRITIEPGTSYRLQGLKPNSLYYFRLAARSPQGLGASTAEISARTMQSKPSAPPQDISCTSPSSTSILVSWQPPPVEKQNGIITEYSIKYTAVDGEDDKPHEILGIPSDTTKYLLEQLEKWTEYRITVTAHTDVGPGPESLSVLIRTNEDVPSGPPRKVEVEAVNSTSVKVSWRSPVPNKQHGQIRGYQVHYVRMENGEPKGQPMLKDVMLADAQWEFDDTTEHDMIISGLQPETSYSLTVTAYTTKGDGARSKPKLVSTTGAVPGKPRLVINHTQMNTALIQWHPPVDTFGPLQGYRLKFGRKDMEPLTTLEFSEKEDHFTATDIHKGASYVFRLSARNKVGFGEEMVKEISIPEEVPTGFPQNLHSEGTTSTSVQLSWQPPVLAERNGIITKYTLLYRDINIPLLPMEQLIVPADTTMTLTGLKPDTTYDVKVRAHTSKGPGPYSPSVQFRTLPVDQVFAKNFHVKAVMKTSVLLSWEIPENYNSAMPFKILYDDGKMVEEVDGRATQKLIVNLKPEKSYSFVLTNRGNSAGGLQHRVTAKTAPDVLRTKPAFIGKTNLDGMITVQLPEVPANENIKGYYIIIVPLKKSRGKFIKPWESPDEMELDELLKEISRKRRSIRYGREVELKPYIAAHFDVLPTEFTLGDDKHYGGFTNKQLQSGQEYVFFVLAVMEHAESKMYATSPYSDPVVSMDLDPQPITDEEE
binds: all assays above
